Results from paper PMC8249388.

Target: T1, GST-Bicc1-KH (UniProt Q99MQ1)
T1 sequence (Q99MQ1 whole entry, looked up): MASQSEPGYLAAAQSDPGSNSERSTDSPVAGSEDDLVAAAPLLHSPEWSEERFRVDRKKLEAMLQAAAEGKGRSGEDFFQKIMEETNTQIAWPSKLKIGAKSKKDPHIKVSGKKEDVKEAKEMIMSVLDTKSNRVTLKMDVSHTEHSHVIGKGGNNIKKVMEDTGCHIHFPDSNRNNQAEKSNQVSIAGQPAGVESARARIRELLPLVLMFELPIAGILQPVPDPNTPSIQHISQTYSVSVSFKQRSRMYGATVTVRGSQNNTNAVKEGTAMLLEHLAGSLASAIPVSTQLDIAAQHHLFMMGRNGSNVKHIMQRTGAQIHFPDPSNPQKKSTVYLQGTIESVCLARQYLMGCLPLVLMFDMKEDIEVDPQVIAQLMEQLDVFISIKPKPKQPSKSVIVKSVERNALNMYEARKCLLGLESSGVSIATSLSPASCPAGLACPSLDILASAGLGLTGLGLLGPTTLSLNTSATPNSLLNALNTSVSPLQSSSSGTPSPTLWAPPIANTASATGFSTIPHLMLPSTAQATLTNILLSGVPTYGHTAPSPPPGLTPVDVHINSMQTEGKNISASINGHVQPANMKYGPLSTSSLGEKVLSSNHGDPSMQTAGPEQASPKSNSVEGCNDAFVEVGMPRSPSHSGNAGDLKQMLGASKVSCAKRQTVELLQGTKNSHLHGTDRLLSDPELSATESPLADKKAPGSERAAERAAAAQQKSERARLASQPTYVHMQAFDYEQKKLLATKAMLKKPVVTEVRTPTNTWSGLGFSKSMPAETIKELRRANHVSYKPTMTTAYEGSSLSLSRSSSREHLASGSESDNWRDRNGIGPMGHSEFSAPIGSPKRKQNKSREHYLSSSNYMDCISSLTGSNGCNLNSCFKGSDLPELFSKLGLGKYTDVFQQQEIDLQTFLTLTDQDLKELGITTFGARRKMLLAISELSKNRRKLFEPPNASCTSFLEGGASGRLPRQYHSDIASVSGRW
Assay: competition EMSA
Details: vs labelled 66-110, 200 nM protein; 10 mM Tris-HCl pH 8, 100 mM KCl, 2.5 mM MgCl2, 2.5% glycerol, 1 mM DTT, 1 ug yeast tRNA in 20 uL, on ice 30 min; 1 pmol tagged RNA + 2.5 pmol DNA probe; 5% native PAGE; recombinant protein; letters put together from the description

“UGAAGCCCUGGGUUCUAUUCGUAUGUGAUAUGUGGAGGUUAAAAA [226-270 WT (distal)]”: no binding.

Construct, isoform or probe ends are uncertain for at least one entry. No signal at the amounts used counts as a negative. At least one verdict was read from the data and is not stated in words by the source.
